The assay deals with BDF1 mice, P1081 chloroleukemia ip, survival T/C. Briefly: NCI In Vivo Anticancer Drug Screen. Data for tumor model P1081 Chloroleukemia (intraperitoneal) in B6D2F1 (BDF1) mice. The note with it: T/C endpoint: mean survival time, higher T/C = longer survival. The procedure: The antitumor activity of compounds was measured in mice bearing transplantable tumors. Survival or tumor size were measured and the results are expressed as the measurement made in the treated group (T) divided by the measurement made in the vehicle treated control group (C). The tumor model used in this assay is P1081 Chloroleukemia (intraperitoneal) in B6D2F1 (BDF1) mice

[1] abbreviates: dose: 125.0 mg/kg/injection, schedule: Q01DX Z (ip), vehicle: carboxymethylcellulose (CMC).
[2] abbreviates: dose: 250.0 mg/kg/injection, schedule: Q01DX Z (ip), vehicle: carboxymethylcellulose (CMC).
The mark [3] stands for this setting: dose: 500.0 mg/kg/injection, schedule: Q01DX Z (ip), vehicle: carboxymethylcellulose (CMC).
Setting [4] is: dose: 100.0 mg/kg/injection, schedule: Q01DX Z (ip), vehicle: other.
The mark [5] stands for this setting: dose: 200.0 mg/kg/injection, schedule: Q01DX Z (ip), vehicle: other.
Where [6] appears, read: dose: 100.0 mg/kg/injection, schedule: Q01DX010 (ip), vehicle: saline.
[7] abbreviates: dose: 200.0 mg/kg/injection, schedule: Q01DX010 (ip), vehicle: saline.
The mark [8] stands for this setting: dose: 50.0 mg/kg/injection, schedule: Q01DX Z (ip), vehicle: other.

The results in this text go back to PubChem BioAssay AID246 (DTP/NCI, 2004).

The list does not hold the whole screen: it is rich in T/C values a quarter to a half above the control, in often repeated tests (any T/C) and in doses without a T/C. Further doses and runs are listed elsewhere. T/C: endpoint of the treated group in % of that of the vehicle group. Some entries give survivors of the animals treated and no T/C: the source holds a T/C of zero for them, seemingly a mark for toxic or unscored doses. Some doses without a T/C left all or most animals alive at the check, yet need not have been tolerated: survival well below the control is almost never listed, so the zero probably covers shortened survival too. Counts of survivors are from the toxicity check (mostly the fifth day) where no day follows; animals may have died later. Schedule codes are those of the source, read here as Q, the interval in days (D) or hours (H), X, the number of doses. Some schedules carry Z or #; the key to these is not given. For survival time, the PubChem record calls one and a half times the control and up active, and a quarter to a half above the control has no call in these data; cut-offs in other NCI protocols can differ. Some T/C values carry the count of animals alive at the toxicity check (mostly the fifth day); where none is given, no animal had died by that day. Some entries hold several experiments; their values stand side by side, smallest first.

`CN(C)c1nc(N(C)C)nc(N(C)C)n1`: the survivor count was 5 of 6 (dose: 8.0 mg/kg/injection, schedule: Q01DX Z (ip), vehicle: carboxymethylcellulose (CMC)); 6 of 6 under setting [1]; 6 of 6 under setting [2]; 3 of 6 under setting [3].
`Cc1n[nH]c(=O)[nH]c1=O`: the survivor count under setting [4] is recorded as 5 of 6; the survivor count under setting [5] is 5 of 6; the survivor count (dose: 400.0 mg/kg/injection, schedule: Q01DX Z (ip), vehicle: other) is given as 4 of 6; the survivor count (dose: 1600.0 mg/kg/injection, schedule: Q01DX Z (ip), vehicle: other) is given as 5 of 6.
With `N#Cc1cn(C2OC(CO)C(O)C2O)c2ncnc(N)c12` (configuration not stated), the T/C (dose: 0.12 mg/kg/injection, schedule: Q01DX Z (ip), vehicle: carboxymethylcellulose (CMC)) was 128 % of control. Further, the survivor count (dose: 0.25 mg/kg/injection, schedule: Q01DX Z (ip), vehicle: carboxymethylcellulose (CMC)) was 5 of 6; the survivor count (dose: 0.5 mg/kg/injection, schedule: Q01DX Z (ip), vehicle: carboxymethylcellulose (CMC)) was 6 of 6; the survivor count (dose: 1.0 mg/kg/injection, schedule: Q01DX Z (ip), vehicle: carboxymethylcellulose (CMC)) is reported as 5 of 6.
For the compound `COc1cc(-c2ccc(Nc3ccccc3C(=O)O)c(OC)c2)ccc1Nc1ccccc1C(=O)O`, the T/C by setting is: (dose: 25.0 mg/kg/injection, schedule: Q01DX010 (ip), vehicle: saline) 144 % of control; (dose: 50.0 mg/kg/injection, schedule: Q01DX010 (ip), vehicle: saline) 133 and 138 % of control; under setting [6], 127 and 133 % of control [5 of 6 alive]. Also, the survivor count under setting [7] is 2 of 6.
For the compound `CN(C)c1ccc(/C=C\c2ccnc3ccccc23)cc1`, the survivor count (dose: 50.0 mg/kg/injection, schedule: Q01DX Z (ip), vehicle: water) is listed as 6 of 6.
Take `O=c1[nH]c(=O)n(C2CC(O)C(CO)O2)cc1F` (configuration not stated): the T/C reads like this: (dose: 20.0 mg/kg/injection, schedule: Q01DX010 (ip), vehicle: saline) 127 % of control; (dose: 25.0 mg/kg/injection, schedule: Q01DX Z (ip), vehicle: carboxymethylcellulose (CMC)) 138 % of control; (dose: 50.0 mg/kg/injection, schedule: Q01DX Z (ip), vehicle: carboxymethylcellulose (CMC)) 126 % of control; (dose: 100.0 mg/kg/injection, schedule: Q01DX Z (ip), vehicle: carboxymethylcellulose (CMC)) 143 % of control. Also, the survivor count is 6 of 6 (dose: 80.0 mg/kg/injection, schedule: Q01DX010 (ip), vehicle: saline); 6 of 6 (dose: 200.0 mg/kg/injection, schedule: Q01DX Z (ip), vehicle: carboxymethylcellulose (CMC)); 6 of 6 (dose: 400.0 mg/kg/injection, schedule: Q01DX Z (ip), vehicle: carboxymethylcellulose (CMC)).
Turning to `CCN(CC)c1ccc2cc3ccc(=[N+](CC)CC)cc-3oc2c1`, the survivor count by setting is: (dose: 10.0 mg/kg/injection, schedule: Q01DX Z (ip), vehicle: carboxymethylcellulose (CMC)) 6 of 6; (dose: 20.0 mg/kg/injection, schedule: Q01DX Z (ip), vehicle: carboxymethylcellulose (CMC)) 0 of 6.
With `Oc1cc(CN(CCCl)CCCl)c(O)cc1CN(CCCl)CCCl`, the T/C was 135 % of control [5 of 6 alive] (dose: 0.24 mg/kg/injection, schedule: Q01DX Z (sc), vehicle: steroid suspending solution); 132 % of control (dose: 0.99 mg/kg/injection, schedule: Q01DX Z (sc), vehicle: steroid suspending solution); 128 % of control (dose: 3.75 mg/kg/injection, schedule: Q01DX Z (sc), vehicle: steroid suspending solution). Besides, the survivor count runs as follows: (dose: 2.5 mg/kg/injection, schedule: Q01DX010 (ip), vehicle: saline) 3 of 6; (dose: 15.0 mg/kg/injection, schedule: Q01DX Z (sc), vehicle: steroid suspending solution) 3 of 6.
On to `O[C@H](CN1CC1)[C@@H](O)CN1CC1`, for which the T/C reads like this: (dose: 0.06 mg/kg/injection, schedule: Q01DX Z (ip), vehicle: carboxymethylcellulose (CMC)) 147 % of control; (dose: 31.0 micrograms/kg/injection, schedule: Q01DX Z (ip), vehicle: carboxymethylcellulose (CMC)) 126 % of control; (dose: 63.0 micrograms/kg/injection, schedule: Q01DX Z (ip), vehicle: carboxymethylcellulose (CMC)) 148 % of control; (dose: 250.0 micrograms/kg/injection, schedule: Q01DX010 (ip), vehicle: saline) 140 % of control. For the same compound, the survivor count (dose: 1000.0 micrograms/kg/injection, schedule: Q01DX010 (ip), vehicle: saline) is given as 6 of 6.
For the compound `c1ccc(CCSc2ncnc3nc[nH]c23)cc1`, the T/C is 130 % of control (dose: 250.0 mg/kg/injection, schedule: Q01DX010 (ip), vehicle: saline) and 140 % of control (dose: 500.0 mg/kg/injection, schedule: Q01DX010 (ip), vehicle: saline).
For `S=c1nc[nH]c2nc[nH]c12`, the survivor count reads like this: (dose: 5.0 mg/kg/injection, schedule: Q01DX010 (ip), vehicle: alkali diluted with saline) 6 of 6; (dose: 10.0 mg/kg/injection, schedule: Q01DX010 (ip), vehicle: alkali diluted with saline) 6 of 6; under setting [8], 6 of 6; under setting [4], 6 of 6; under setting [5], 6 of 6. Also, the T/C is, setting by setting: (dose: 6.25 mg/kg/injection, schedule: Q01DX Z (ip), vehicle: other) 136 % of control; (dose: 12.5 mg/kg/injection, schedule: Q01DX Z (ip), vehicle: other) 110, 118, 130, 159, 169 % of control; (dose: 25.0 mg/kg/injection, schedule: Q01DX Z (ip), vehicle: other) 116, 127, 136, 147, 170 % of control; under setting [8], 105, 126, 134, 150 % of control; (dose: 80.0 mg/kg/injection, schedule: Q01DX010 (ip), vehicle: alkali diluted with saline) 125 % of control; under setting [4], 92 and 135 % of control.
In the case of `CC(=O)OCC1OC(n2ncc(=O)[nH]c2=O)C(OC(C)=O)C1OC(C)=O` (configuration not stated), the T/C (dose: 937.5 mg/kg/injection, schedule: Q01DX Z (ip), vehicle: alkali diluted with saline) was 127 % of control. The survivor count (dose: 7500.0 mg/kg/injection, schedule: Q01DX Z (ip), vehicle: alkali diluted with saline) is 0 of 6.
On to `COc1cc2c(c(OC)c1OC)-c1ccc(OC)c(=O)cc1[C@@H](NC(C)=O)CC2`, for which, for the setting “dose: 0.31 mg/kg/injection, schedule: Q01DX Z (ip), vehicle: saline”, the T/C was 135 % of control. Also, the survivor count is 3 of 6 (dose: 1.2 mg/kg/injection, schedule: Q01DX Z (ip), vehicle: saline); 0 of 6 (dose: 2.5 mg/kg/injection, schedule: Q01DX Z (ip), vehicle: saline); 0 of 6 (dose: 5.0 mg/kg/injection, schedule: Q01DX Z (ip), vehicle: saline).
Take `OCC1OC(n2cnc3c(=S)nc[nH]c32)C(O)C1O` (configuration not stated): the T/C reads like this: (dose: 62.5 mg/kg/injection, schedule: Q01DX Z (ip), vehicle: carboxymethylcellulose (CMC)) 133 % of control; under setting [1], 133 % of control; (dose: 160.0 mg/kg/injection, schedule: Q01DX010 (ip), vehicle: saline) 125 % of control [5 of 6 alive]; under setting [2], 133 % of control [5 of 6 alive]. Moreover, under setting [3], the survivor count is recorded as 6 of 6.
In the case of `O=[n+]1c2c(n([O-])c3ccccc31)-c1cccc3cccc-2c13`, the survivor count is 6 of 6 under setting [6] and 6 of 6 under setting [7].
